Laboratory results: PubChem BioAssay AID1508597 (Cure First, 2020)

- Screen: 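Knock-downs altering ovarian cancer cell survival with or without PARP inhibitor rucaparib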 (primary screen)
- System: human ovarian carcinoma lines grown from tumours: OCI-P5x (papillary serous) and OCI-C5x (clear cell)
- Reagents: siRNA pool against human genes, 1.25 pmol siRNA per well
- Duration: 72 h or 96 h, depending on the cell culture
- Treatment: rucaparib 20 µM (about IC30) or vehicle, present until read-out
- Rucaparib or vehicle: Vehicle
- Cell line: OCI-C5x (clear cell)
- Detection: 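ATP luminescence measured at 72 or 96 h according to the culture, then normalised and expressed as percent viability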
- Reading the numbers: viability, normalised: higher = more viable cells remaining
- Active means: 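a well counts as a hit if its normalised viability is under 80 percent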
- Meaning of the calls: active = viability under 80%; inactive = viability 80% or more
Shown is an unselected part of the about 2,100 reagents, under one of the conditions tested. 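Calls flag viability under 80% in either arm, not effects specific to rucaparib; the reference for percent is not stated.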 Entries without a mark were called inactive. The record does not give: the 100% reference.

| gene | technical replicate | viability, normalised (%) |
| --- | --- | --- |
| SLC1A2 | 1 | 35.7 (active) |
| SLC1A2 | 2 | 32.7 (active) |
| SLC1A2 | 3 | 34.1 (active) |
| LBR | 1 | 55.9 (active) |
| LBR | 2 | 68.3 (active) |
| LBR | 3 | 61.5 (active) |
| ACVR2A | 1 | 127 |
| ACVR2A | 2 | 49.1 (active) |
| ACVR2A | 3 | 70.7 (active) |
| MYO3A | 1 | 101 |
| MYO3A | 2 | 45 (active) |
| MYO3A | 3 | 71.5 (active) |

Next part; the last 2 above are carried over.
| gene | technical replicate | viability, normalised (%) |
| --- | --- | --- |
| MYO3A | 2 | 45 (active) |
| MYO3A | 3 | 71.5 (active) |
| MED23 | 1 | 40.8 (active) |
| MED23 | 2 | 51.1 (active) |
| MED23 | 3 | 51.1 (active) |
| BOK | 1 | 48.9 (active) |
| BOK | 2 | 42.5 (active) |
| BOK | 3 | 38.7 (active) |
| NAP1L2 | 1 | 52.8 (active) |
| NAP1L2 | 2 | 40 (active) |
| NAP1L2 | 3 | 51.7 (active) |
| SS18L1 | 1 | 70.1 (active) |
| SS18L1 | 2 | 76.3 (active) |
| SS18L1 | 3 | 44.5 (active) |
